The text below walks through data of patent US11564923B2, “Compounds and pharmaceutical compositions thereof for the treatment of inflammatory disorders” (Galapagos NV, priority 2017, dated 2023).

Sequences of proteins named here, by UniProt entry; tags and fusion partners are left off. Residues count along the entry.
UniProt P52333, 781-1124: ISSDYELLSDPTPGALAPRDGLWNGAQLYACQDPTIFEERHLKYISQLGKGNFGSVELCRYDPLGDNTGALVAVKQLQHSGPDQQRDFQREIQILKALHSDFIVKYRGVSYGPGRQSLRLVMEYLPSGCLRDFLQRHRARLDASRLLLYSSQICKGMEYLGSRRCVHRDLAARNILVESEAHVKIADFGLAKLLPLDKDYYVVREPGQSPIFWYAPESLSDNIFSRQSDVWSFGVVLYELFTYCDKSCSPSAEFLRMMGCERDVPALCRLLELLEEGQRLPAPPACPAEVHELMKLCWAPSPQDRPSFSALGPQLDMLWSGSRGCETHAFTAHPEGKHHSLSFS

Structures can show the parent of a compound that is named as a salt.

This experiment deals with Recombinant human JAK3 catalytic domain (amino acids 781-1124) (Homo sapiens, UniProt P52333). Briefly: JAK3 inhibition assay. The experiment is classed as biochemical. As for the experimental part: After 45 min at 30° C., reactions are stopped by adding 25 μL/well of 150 mM phosphoric acid. […] Plates are washed 6 times with 300 μL per well of a 75 mM phosphoric acid solution and the bottom of the plates is sealed. […] Kinase activity is calculated by subtracting counts per min (cpm) obtained in the presence of a positive control inhibitor (10 μM staurosporine) from cpm obtained in the presence of vehicle. The ability of a test compound to inhibit this activity (or percentage inhibition) is determined as: […]
cpm test compound=cpm determined for sample with test compound present cpm control=cpm determined for sample with positive control inhibitor cpm vehicle=cpm determined in the presence of vehicle
Dose dilution series were prepared for the compounds enabling the testing of dose-response effects in the JAK3 assay and the calculation of the IC50 for each compound. Each compound is routinely tested at concentration of 20 μM followed by a 1/5 serial dilution, 10 points in a final concentration of 1% DMSO.

Regarding `Cc1cc(C#N)ncc1Oc1cc(Nc2ccc(CN(C)CCN(C)C)cn2)c2ncn(C)c2n1` [Compound 83, 5-[7-[[5-[[2-(dimethylamino)ethyl-methylamino]methyl]pyridin-2-yl]amino]-3-methylimidazo[4,5-b]pyridin-5-yl]oxy-4-methylpyridine-2-carbonitrile formate salt], the IC50 was 368 nM.
